Laboratory results: publication PMC12543280
Changes are numbered by the printed parent chain. These are yes or no findings as the source states them, for the method shown. For part of these data: In cells and extracts the contact can be indirect. Some binding calls cover weakened binding; strength is not graded here. Tags and fused reporters may be left off the sequences shown.

Protein sequences, listed by entry. Tags and fused reporters are not part of them.
UniProt P62137: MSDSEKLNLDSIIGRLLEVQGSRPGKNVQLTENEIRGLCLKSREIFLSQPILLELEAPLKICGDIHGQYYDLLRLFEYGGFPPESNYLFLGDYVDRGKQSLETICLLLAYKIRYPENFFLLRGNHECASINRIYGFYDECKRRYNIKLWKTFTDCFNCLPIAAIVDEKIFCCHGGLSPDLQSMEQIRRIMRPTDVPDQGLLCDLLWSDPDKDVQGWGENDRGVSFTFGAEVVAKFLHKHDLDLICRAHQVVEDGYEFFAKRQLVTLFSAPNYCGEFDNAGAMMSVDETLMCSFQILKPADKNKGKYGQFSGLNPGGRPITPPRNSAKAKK

Columns and labels:
[1] = molecular target: T1, H. sapiens iASPP C-terminus, iASPP(602-828, N657K), fused to an HA tag and a HaloTag (human) (UniProt Q8WUF5); assay: SEC; fluorescent size exclusion chromatography of lysates of cotransfected HEK293T cells; HaloTagged iASPP C-terminus labelled with JFX549; Superdex 200 Increase 10/300 GL, TBS, 4°C
T1 sequence (chain, JFX549 dye on the HaloTag (fluorescent size exclusion chromatography only)): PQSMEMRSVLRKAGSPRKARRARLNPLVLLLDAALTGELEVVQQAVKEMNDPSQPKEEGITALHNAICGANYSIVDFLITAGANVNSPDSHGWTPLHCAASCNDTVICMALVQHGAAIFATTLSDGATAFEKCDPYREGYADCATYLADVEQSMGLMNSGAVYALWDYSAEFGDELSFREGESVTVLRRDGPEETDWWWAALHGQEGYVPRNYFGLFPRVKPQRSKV

[2] = molecular target: T2, H. sapiens iASPP C-terminus, iASPP(602-828), fused to an HA tag and a HaloTag (human) (UniProt Q8WUF5); assay: as above
T2 sequence (chain, JFX549 dye on the HaloTag (fluorescent size exclusion chromatography only)): T1 sequence (chain, JFX549 dye on the HaloTag (fluorescent size exclusion chromatography only)) with K56N

[3] = molecular target: T3, H. sapiens iASPP C-terminus, iASPP(602-828, H665Y), fused to an HA tag and a HaloTag (human) (UniProt Q8WUF5); assay: as above
T3 sequence (chain, JFX549 dye on the HaloTag (fluorescent size exclusion chromatography only)): T1 sequence (chain, JFX549 dye on the HaloTag (fluorescent size exclusion chromatography only)) with K56N, H64Y

[4] = molecular target: T1, H. sapiens iASPP C-terminus, iASPP(602-828, N657K), fused to an HA tag and a HaloTag (human); assay: pull-down; HaloTag purification (HaloLink magnetic beads, release by TEV) from HEK293T cells cotransfected with HA-PP1 and HA- and HaloTagged iASPP C-terminus; quantitative HA blot of both
[5] = molecular target: T2, H. sapiens iASPP C-terminus, iASPP(602-828), fused to an HA tag and a HaloTag (human); assay: as above
[6] = molecular target: T3, H. sapiens iASPP C-terminus, iASPP(602-828, H665Y), fused to an HA tag and a HaloTag (human); assay: as above

binding [1]: binds
binding [2]: binds
binding [3]: binds
binding [4]: binds
binding [5]: binds
binding [6]: binds
Substance: PP1 (M. musculus PPP1CA) fused to an HA tag (from UniProt P62137 1-330) (enzyme)
